Results from one PubChem assay

From PubChem BioAssay record AID1159506 (NCATS, 2015).

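Luminescence from an EWS-FLI1 target-promoter (NR0B1) reporter, set against a CMV-promoter reporter, two days after silencing single genes in TC32 Ewing sarcoma cells. Each siRNA was applied at 20 nM. A z-score of the log NR0B1-over-CMV signal, less the median of siRNAs with the same seed; more negative means a stronger specific loss of the NR0B1 reporter.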

This is part of the screen; most of the strongest results are not listed here. Sequences are the guide (antisense) strand, without overhang.

strand,gene,seed-corrected z-score
AGGAUUAACAUUUACAUCC,CEP44,0.5023
UGUCUAGAAAGAGUUCGUG,ZMYM4,0.475
UUUCUAGCCAGGGUGAAGC,ECHDC2,-0.7782
UGAAAUUGAAGGGCAGUUG,DLL4,1.181
UCAUGUUGAAGCAAUAUCC,ASB5,0.1826
UUCUGUCAAAUAUCAAGCC,BBOX1,-0.1013
UUAAGGUCCAUGCUACCUG,RPP25,-1.183
UGACAUUUGAGUCCUUUCC,TNIP1,-0.4005
AUAGCAGUCAGUGAUGCGC,CD248,-0.3076
UUUAAUUGUUGUAAGAAAC,ANKRD37,0.7574
UGCGAUAUAAGUUAGUCCG,MAN1A1,0.1054
AAACUUGUGCUUCCGAGGG,TEF,-0.3098
AACGCGAAGAAUCCACUCC,ANXA2R,0.2957
UCCUGGACGAUCUUCUUCU,FGD2,-1.119
UACACGAUCCAUACACUCU,NCOR1P1,-0.4958
UUCACUUGCACAAAGUCGG,CAMSAP3,-0.1696
AAUGGAAUGAUAUGAGAGC,LRR1,0.2419
UACGUAACACCAUACACUC,USP16,0.04319
UCACAGACGAUGGUGUUGC,P2RY13,-1.122
UUCUCUAUUGCAAUGGUGA,FSHB,0.3826
UUGUUGACGAACAUCACCU,SLC14A2,-0.5369
UCAGGGAUUCCUCUUGUGC,TCHP,0.1501
UCUCGUUCAAUAAUCUUAG,RPAP1,1.006
UUCCCGUAGAGCCUCAUCC,HEBP1,-1.509
UCAACAUCAAAAGCGACUC,ZNF217,-0.4991
UAGUUUAACAGGCUUCUCA,FBF1,0.1531
UUUCAAAUGACAAGAAUUG,SLC25A19,0.3192
UGAGGGCUCAGCUCAUAGC,RARG,-0.0366
UUAAAUAAUAGAAACCAUG,TMEM213,0.8355
AUCCAGACUUGUCUCCUUC,C10orf95,-1.709
UACUCGGUGACUGUAGUAG,LAMB3,-0.5592
UAUAUGGUGAUGUUAACUC,NPAP1,0.7506
UCAAGGACAUCAGUAAUUC,RUFY1,0.3756
AACACGUUACCAUACAGUG,POU3F4,0.157
UAGUUUACAUCCGCUGUCG,PKD1,-0.9795
UUUGGAUGCAGGGAACAGA,PSRC1,1.127
UUGGUAGAAAUCUAAUCUC,C12orf10,1.837
UCAUUUUCGGGAUCAUCCG,RPL18P4,0.1553
UUUCUUUUUGGUCUGGAUG,PPM1N,-1.199
UAACCCACCAGAUCAAACC,CWH43,0.04031
GCAGCAACACGUACAGCAC,NPBWR1,0.5719
UGUAGUUGCAUUGACAGUU,EQTN,-0.6595
UUUGUGGAAACGGUGAGAG,EHMT1,-0.6793

The last 3 entries again:

* GCAGCAACACGUACAGCAC against NPBWR1 : seed-corrected z-score 0.5719
* UGUAGUUGCAUUGACAGUU against EQTN : seed-corrected z-score -0.6595
* UUUGUGGAAACGGUGAGAG against EHMT1 : seed-corrected z-score -0.6793